Assay [1] concerns the target NR2E3-MUTT2A-TurboID (human) (UniProt Q9Y5X4). As to the kind of experiment: proximity labelling.
Assay [2] addresses G56R-NR2E3-MUTT2A-TurboID (human) (UniProt Q9Y5X4). As to the kind of experiment: proximity labelling.

Sequences of proteins named here, by UniProt entry; tags and fusion partners are left off. A change or cut given only in a name is not applied to a line headed by its entry.
UniProt Q9Y5X4: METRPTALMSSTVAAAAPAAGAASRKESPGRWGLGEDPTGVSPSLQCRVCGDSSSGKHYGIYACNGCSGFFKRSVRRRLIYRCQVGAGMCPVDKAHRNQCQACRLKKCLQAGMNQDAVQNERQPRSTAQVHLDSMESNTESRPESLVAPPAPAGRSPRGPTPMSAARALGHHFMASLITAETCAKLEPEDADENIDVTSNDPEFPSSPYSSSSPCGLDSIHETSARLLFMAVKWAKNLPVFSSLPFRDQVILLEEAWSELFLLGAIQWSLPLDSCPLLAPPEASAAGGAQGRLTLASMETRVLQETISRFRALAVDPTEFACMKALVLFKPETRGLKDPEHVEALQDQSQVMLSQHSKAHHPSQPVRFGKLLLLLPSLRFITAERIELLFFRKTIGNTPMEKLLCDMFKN
UniProt Q6W2J9: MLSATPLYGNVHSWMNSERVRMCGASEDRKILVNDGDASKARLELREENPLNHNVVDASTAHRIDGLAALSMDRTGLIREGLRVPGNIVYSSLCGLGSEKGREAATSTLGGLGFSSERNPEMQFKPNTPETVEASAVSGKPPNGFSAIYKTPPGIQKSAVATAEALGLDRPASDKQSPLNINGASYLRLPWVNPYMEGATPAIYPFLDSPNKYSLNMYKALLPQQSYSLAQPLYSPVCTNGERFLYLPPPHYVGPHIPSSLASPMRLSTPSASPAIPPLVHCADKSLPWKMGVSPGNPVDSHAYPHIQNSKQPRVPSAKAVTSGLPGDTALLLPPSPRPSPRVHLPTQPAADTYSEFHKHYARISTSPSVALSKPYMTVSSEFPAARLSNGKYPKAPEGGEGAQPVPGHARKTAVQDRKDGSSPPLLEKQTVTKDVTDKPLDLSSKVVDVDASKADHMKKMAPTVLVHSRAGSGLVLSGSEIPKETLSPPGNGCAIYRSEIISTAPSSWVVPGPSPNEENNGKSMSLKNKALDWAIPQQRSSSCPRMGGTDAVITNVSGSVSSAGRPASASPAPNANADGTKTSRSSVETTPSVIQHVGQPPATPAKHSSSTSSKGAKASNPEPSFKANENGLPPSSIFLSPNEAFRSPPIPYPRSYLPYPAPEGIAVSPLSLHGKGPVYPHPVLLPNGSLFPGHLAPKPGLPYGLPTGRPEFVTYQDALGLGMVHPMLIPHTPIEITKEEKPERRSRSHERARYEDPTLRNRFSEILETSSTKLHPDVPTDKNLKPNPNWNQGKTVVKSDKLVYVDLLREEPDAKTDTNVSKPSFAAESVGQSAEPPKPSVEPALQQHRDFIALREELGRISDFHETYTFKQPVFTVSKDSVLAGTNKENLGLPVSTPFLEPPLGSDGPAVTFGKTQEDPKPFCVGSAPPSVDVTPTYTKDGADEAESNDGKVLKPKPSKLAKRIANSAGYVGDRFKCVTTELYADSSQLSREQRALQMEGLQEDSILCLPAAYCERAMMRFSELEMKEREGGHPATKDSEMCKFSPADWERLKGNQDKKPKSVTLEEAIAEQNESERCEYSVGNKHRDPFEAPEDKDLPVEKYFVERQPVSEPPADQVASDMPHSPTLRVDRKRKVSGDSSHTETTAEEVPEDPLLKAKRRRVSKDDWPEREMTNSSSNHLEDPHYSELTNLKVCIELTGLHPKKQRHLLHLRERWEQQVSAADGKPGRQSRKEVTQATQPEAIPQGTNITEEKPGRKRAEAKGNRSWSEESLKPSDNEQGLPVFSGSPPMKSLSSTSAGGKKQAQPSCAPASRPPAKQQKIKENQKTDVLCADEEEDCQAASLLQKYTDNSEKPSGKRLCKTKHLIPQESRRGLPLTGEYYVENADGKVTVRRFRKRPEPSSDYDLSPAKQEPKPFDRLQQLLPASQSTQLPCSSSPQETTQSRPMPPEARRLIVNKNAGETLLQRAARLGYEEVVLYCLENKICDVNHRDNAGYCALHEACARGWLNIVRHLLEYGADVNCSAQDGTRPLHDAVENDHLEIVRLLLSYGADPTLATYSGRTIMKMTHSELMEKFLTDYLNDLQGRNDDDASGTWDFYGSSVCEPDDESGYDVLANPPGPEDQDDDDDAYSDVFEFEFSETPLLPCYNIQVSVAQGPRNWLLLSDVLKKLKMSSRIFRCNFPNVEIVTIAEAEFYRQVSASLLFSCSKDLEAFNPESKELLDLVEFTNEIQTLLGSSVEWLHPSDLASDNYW
UniProt Q16630: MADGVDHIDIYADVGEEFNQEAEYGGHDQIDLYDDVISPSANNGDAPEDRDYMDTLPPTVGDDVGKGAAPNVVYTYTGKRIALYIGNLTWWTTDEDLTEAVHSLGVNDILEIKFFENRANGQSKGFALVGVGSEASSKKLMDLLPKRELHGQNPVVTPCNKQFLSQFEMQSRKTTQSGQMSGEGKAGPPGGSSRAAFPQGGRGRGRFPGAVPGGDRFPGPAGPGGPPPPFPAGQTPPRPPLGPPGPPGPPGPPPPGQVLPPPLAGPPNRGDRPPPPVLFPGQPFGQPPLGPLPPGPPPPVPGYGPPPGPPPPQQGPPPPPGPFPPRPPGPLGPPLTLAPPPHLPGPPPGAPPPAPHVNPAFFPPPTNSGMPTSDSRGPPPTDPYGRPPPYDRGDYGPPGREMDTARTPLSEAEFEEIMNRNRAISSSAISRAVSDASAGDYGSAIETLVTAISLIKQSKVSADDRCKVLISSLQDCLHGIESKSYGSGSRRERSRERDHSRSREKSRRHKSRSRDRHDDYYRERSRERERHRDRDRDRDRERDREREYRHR
UniProt Q9BSM1: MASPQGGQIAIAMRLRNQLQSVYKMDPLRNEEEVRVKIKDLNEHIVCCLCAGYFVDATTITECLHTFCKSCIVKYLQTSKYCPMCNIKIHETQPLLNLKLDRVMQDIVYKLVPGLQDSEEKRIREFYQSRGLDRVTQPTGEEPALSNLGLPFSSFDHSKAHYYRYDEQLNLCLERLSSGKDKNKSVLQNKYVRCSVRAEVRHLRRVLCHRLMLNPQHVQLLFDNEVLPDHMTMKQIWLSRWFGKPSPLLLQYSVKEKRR
UniProt Q86SE9: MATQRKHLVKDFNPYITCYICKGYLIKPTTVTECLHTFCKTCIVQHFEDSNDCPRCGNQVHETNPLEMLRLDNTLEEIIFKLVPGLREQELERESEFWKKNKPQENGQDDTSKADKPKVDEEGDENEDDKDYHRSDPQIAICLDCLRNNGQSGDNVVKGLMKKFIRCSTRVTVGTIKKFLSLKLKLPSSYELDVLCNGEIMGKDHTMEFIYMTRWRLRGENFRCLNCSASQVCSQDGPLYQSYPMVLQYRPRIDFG
UniProt Q06587: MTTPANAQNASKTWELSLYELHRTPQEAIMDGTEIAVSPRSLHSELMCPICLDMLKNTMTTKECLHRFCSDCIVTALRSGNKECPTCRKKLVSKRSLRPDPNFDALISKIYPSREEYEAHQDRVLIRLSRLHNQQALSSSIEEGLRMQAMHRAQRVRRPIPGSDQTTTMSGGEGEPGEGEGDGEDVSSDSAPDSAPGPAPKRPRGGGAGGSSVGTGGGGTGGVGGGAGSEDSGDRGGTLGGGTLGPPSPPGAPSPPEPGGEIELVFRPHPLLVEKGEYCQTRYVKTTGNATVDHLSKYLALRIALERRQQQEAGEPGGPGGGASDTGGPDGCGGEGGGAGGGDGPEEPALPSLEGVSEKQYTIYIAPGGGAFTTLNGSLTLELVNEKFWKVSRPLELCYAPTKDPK
UniProt O15379: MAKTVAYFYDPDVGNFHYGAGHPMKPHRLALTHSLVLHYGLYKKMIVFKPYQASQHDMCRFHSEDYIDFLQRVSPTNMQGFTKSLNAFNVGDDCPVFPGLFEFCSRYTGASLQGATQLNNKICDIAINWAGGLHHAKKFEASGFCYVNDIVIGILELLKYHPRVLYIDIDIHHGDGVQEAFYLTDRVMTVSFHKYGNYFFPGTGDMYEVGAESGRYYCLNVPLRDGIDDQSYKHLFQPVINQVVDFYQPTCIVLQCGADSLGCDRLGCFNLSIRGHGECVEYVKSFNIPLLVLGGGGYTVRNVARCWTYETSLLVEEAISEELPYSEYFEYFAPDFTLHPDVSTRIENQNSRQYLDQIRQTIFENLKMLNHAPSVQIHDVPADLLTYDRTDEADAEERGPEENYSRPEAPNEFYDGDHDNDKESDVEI
UniProt O75376: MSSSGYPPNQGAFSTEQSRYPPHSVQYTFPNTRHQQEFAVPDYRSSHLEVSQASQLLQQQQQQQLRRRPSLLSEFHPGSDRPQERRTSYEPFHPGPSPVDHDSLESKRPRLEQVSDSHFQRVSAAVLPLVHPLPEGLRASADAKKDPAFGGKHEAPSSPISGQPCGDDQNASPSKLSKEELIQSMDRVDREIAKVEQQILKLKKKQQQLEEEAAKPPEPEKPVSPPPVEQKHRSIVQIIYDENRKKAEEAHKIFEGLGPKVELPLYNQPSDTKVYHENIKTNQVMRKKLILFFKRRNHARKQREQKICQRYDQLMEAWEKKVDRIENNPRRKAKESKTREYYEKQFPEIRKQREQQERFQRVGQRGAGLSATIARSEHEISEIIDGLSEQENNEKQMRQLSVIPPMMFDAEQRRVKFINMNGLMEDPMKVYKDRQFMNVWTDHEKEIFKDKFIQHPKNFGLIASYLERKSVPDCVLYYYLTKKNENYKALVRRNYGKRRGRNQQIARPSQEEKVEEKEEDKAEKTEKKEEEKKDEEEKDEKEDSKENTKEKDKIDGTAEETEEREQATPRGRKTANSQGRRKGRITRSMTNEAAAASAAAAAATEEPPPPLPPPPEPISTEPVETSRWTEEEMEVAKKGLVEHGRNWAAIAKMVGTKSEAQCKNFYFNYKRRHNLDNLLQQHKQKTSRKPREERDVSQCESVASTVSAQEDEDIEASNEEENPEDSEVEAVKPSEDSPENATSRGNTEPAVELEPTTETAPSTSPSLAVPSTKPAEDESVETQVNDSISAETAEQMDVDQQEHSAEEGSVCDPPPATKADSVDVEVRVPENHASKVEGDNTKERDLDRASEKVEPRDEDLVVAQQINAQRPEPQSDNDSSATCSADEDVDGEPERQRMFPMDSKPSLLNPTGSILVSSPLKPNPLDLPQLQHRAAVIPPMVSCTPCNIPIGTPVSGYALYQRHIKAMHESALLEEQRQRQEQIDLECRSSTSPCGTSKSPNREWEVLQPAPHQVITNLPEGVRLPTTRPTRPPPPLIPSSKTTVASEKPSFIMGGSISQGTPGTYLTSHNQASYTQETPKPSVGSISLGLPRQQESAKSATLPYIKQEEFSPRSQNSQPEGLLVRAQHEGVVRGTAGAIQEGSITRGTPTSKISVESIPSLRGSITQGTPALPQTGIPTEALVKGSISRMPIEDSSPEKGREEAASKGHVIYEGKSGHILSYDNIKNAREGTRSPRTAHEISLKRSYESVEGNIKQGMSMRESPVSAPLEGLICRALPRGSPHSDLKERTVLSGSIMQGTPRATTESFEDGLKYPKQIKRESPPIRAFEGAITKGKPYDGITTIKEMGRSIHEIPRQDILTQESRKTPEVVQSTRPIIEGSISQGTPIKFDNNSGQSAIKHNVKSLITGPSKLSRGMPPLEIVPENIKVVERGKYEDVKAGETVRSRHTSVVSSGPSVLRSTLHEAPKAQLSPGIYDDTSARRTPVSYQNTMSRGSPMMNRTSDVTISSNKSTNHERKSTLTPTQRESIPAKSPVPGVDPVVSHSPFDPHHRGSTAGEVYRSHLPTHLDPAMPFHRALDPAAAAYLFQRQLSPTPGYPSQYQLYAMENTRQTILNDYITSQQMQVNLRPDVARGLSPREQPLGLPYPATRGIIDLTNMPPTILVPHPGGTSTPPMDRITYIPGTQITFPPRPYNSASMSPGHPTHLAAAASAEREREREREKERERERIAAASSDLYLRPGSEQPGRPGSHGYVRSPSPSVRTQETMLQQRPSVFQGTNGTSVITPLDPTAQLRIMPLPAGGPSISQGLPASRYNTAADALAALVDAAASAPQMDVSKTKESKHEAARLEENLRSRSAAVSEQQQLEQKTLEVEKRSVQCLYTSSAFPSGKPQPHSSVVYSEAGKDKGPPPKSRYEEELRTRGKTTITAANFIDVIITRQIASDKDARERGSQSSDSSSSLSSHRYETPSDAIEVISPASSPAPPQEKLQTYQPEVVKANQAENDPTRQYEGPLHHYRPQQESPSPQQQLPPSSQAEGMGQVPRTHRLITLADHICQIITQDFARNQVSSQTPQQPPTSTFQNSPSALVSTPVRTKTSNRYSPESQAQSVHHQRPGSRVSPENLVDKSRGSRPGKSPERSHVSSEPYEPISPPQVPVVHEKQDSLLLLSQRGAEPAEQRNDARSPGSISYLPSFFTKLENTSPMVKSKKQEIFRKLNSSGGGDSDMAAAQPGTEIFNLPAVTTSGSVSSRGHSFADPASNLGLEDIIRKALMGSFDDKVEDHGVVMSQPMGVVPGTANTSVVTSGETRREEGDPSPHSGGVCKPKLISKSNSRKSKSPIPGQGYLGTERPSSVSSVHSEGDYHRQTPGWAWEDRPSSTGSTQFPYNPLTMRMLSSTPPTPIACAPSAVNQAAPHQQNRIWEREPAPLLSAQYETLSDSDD

These are yes or no findings as the source states them, for the method shown. In cells and extracts the contact can be indirect. A yes stands for co-enrichment or nearness to the bait. Other partners may have been found. For part of these data: A no says only that the protein was not detected with the bait.

In the case of “Bcl-6 co-repressor (BCOR) (from UniProt Q6W2J9 1-1755)”, the binding entry was “no binding” in assay [1] and “binds” in assay [2]. On to CPSF4 (from UniProt O95639 1-269), for which the binding result in assay [1] is on record as “binds”. As to CPSF6 (from UniProt Q16630 1-551), the binding result in assay [1] is “binds”. The same measure, in the same setting: the same measure for PCGF1 (from UniProt Q9BSM1 1-259): “binds”. On the same count and under the same terms, the same measure for PCGF5 (from UniProt Q86SE9 1-256): “binds”; for RING1 (from UniProt Q06587 1-406): “binds”; for USP34 (from UniProt Q70CQ2 1-3546): “binds”.

As for “class I histone deacetylase HDAC3 (from UniProt O15379 1-428)”, the binding entry in assay [1] and in assay [2] was “binds” in each case. Turning to “nuclear receptor corepressor 1 (from UniProt O75376 1-2440)”, the binding entry in assay [1] and in assay [2] was “binds” throughout.

(Values after publication doi:10.1101/2025.09.04.674188.)
